From PubChem BioAssay AID1487 (National Center for Advancing Translational Sciences (NCATS), 2009)
Values joined by “and” are separate entries in the source; they are usually repeats but may differ in a detail not shown here. Equal values may be shown once. The list shows a part of the results. Further columns of the screen follow, without active or inactive calls. Compounds called inactive in the main read-out are mostly missing here. Words in brackets tell the shape of the fitted curve; partial curves, single points and poor fits give uncertain potencies.

Assay: qHTS Assay for Modulators of Lamin A Splicing
Conditions: HeLa LMNA splicing GFP/RFP minigene ratio, 48 h
How it was run: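 S3 HeLa stable clones carrying a lamin A-EGFP splicing minigene plus DsRed2 were seeded at 600 cells/well in Opti-MEM with 2% FBS, pin-dosed and incubated 48 h at 37°C. Acumen cytometry (488 nm) gave the GFP/RFP total-intensity ratio.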

[1] = measured here: RFP viability control channel
[2] = measured here: GFP splicing reporter channel

Row | Compound | AC50 [1] | AC50 [2]
1 | Cc1nn(-c2ccc(N3CCCC3)nn2)c(C)c1CCC(=O)N1CCN(c2ccccc2F)CC1 | 0.00316 µM [falling, full curve, poor fit] | –
2 | CCNc1nc(N)nc(-c2cc(Cl)ccc2O)n1 | 20 µM [falling, partial curve, poor fit] | –
3 | COc1ccc(CNC(=O)CCNS(=O)(=O)c2ccc3c(c2)CCCC(=O)N3)cc1 | 0.158 µM [falling, full curve] | –
4 | CCCc1[nH]nc2c1C(c1ccc(Br)s1)C(C#N)=C(N)O2 (stereo not drawn) | 35.5 µM [falling, single point] | 17.8 µM [falling, single point]
5 | CCC(C(=O)C(C)C(O)C(C)CCc1ccc(C)c(O)c1C(=O)O)C1OC(CC)(C2CC[C@@](O)(CC)C(C)O2)CC1C (stereo partly drawn) | 28.2 µM [falling, single point] | 5.01 µM [falling, partial curve, poor fit]
6 | O=C(CCc1ccc(S(=O)(=O)NCCc2ccccc2)cc1)Nc1ccc2c(c1)OCCO2 | 10 µM [rising, partial curve] | –
7 | Cc1ccc(Cl)cc1N(C)C(=O)C1CCCN(c2ncnc3onc(-c4ccc(F)cc4)c23)C1 (stereo not drawn) | 2.24 µM [rising, partial curve, poor fit] | 0.112 µM [rising, full curve, poor fit]
8 | COc1ccc2c(c1OC)C(=O)N1N=C(c3ccc(Br)cc3)CC21 (stereo not drawn) | 20 µM [rising, partial curve, poor fit] | –
9 | N#C/C(=C\c1ccc(-c2ccc(F)cc2)o1)C(=O)Nc1nc(-c2cccs2)cs1 | 8.91 µM [rising, partial curve] | 7.08 µM [rising, partial curve]
10 | CC(C)SCc1cc(N2CCCC2)nc(-c2ccccc2)n1 | – | 35.5 µM [rising, single point]
11 | O=C(ONC1=NCCCCC1)c1ccc([N+](=O)[O-])cc1 | 11.2 µM [rising, single point] | –
12 | CCCn1c(CN(C)Cc2ccccc2)nc2c1c(=O)n(C)c(=O)n2C | 12.6 µM [rising, partial curve] | 8.91 µM [rising, partial curve]
13 | Cc1cc(C)nc(Sc2ncnc3c2oc2ccccc23)n1 | – | 11.2 µM [falling, partial curve]
14 | CCCCOC(=O)c1ccc(Nc2ncnc3c2cnn3-c2cccc(C)c2)cc1 | 0.251 µM [falling, full curve] | 0.112 µM [falling, full curve]
15 | CCCCOc1cccc(C(=O)NC(=S)Nc2ccc(Cl)c(C(=O)O)c2)c1 | – | 0.158 µM [rising, full curve, poor fit]
16 | c1ccc(N2CCN(c3ncccn3)CC2)cc1 | 0.0178 µM [falling, full curve, poor fit] | 0.0355 µM [falling, full curve, poor fit]
17 | Cn1cnc([N+](=O)[O-])c1Sc1ncnc2nc[nH]c12 | 0.398 µM [rising, full curve] | 3.16 nM [falling, full curve, poor fit] and 316 nM [rising, full curve]
18 | CC(=O)c1cccc(NC(=O)Nc2cc3sccc3n2C)c1 | 22.4 µM [rising, single point] | –
19 | COc1cccc(N2CCN(c3ncnc4c3c(-c3ccccc3)cn4-c3ccc(F)cc3)CC2)c1 | 2.51 µM [rising, full curve] | –
20 | CC(C)COC(=O)C1C(=O)CC(C)(O)C(C(=O)OCC(C)C)C1c1cccnc1 (stereo not drawn) | 0.0316 µM [falling, full curve, poor fit] | 1.26 µM [falling, partial curve, poor fit]
21 | COc1ccc(C(=O)C[n+]2cc(-c3ccc(OC)cc3)n3c2CCCC3)cc1 | – | 35.5 µM [falling, partial curve]
22 | Cc1ccn2cc(CCNS(=O)(=O)c3ccc4c(c3)CCCC4)nc2c1 | 12.6 µM [rising, partial curve] | –
23 | Cc1cc(C)n(CC(=O)n2c3ccccc3c3ccccc32)n1 | 0.398 µM [falling, partial curve, poor fit] | –
24 | COc1ccccc1N1CCN(c2ncnc3c2c(-c2ccccc2)cn3-c2cccc(C)c2)CC1 | 20 µM [rising, single point] | –
25 | CCC[C@@H]1C[C@@]1(CCC)[C@@H](NP(=O)(c1ccccc1)c1ccccc1)c1ccc(C(=O)OC)cc1 | 35.5 µM [falling, single point] | –
26 | Cc1ccc(CCNC(=O)C2CCCN(S(=O)(=O)c3c(C)noc3C)C2)cc1 (stereo not drawn) | 10 µM [rising, single point] | –
27 | COc1cc(S(=O)(=O)N(Cc2ccccc2)CC2CCCO2)ccc1-n1cnnn1 (stereo not drawn) | – | 0.00891 µM [rising, partial curve, poor fit]

Row | Compound | AC50 [1] | AC50 [2]
28 | CCN1CCN(c2ncnc3c2cnn3-c2cc(Cl)ccc2C)CC1 | 20 µM [rising, partial curve, poor fit] | –
29 | Cn1nnc2c(sc3nc(N4CCOCC4)c4c(c32)CCCC4)c1=O | 4.47 µM [rising, single point] | –
30 | COc1cc(/C=C/C(=O)c2ccc(C)cc2)ccc1OCC#N | 15.8 µM [falling, single point] | 35.5 µM [falling, single point]
31 | CCn1c2ccccc2c2cc(NC(=O)c3cccc(OC)c3)ccc21 | 10 µM [rising, partial curve] | –
32 | COc1ccc(CNC(=O)c2cc(-c3cccs3)on2)cc1 | 22.4 µM [rising, single point] | 22.4 µM [rising, single point]
33 | O=c1c(O[C@@H]2O[C@H](CO)[C@H](O)[C@H](O)[C@H]2O)c(-c2ccc(O)c(O)c2)oc2cc(O)cc(O)c12 | 28.2 µM [falling, partial curve, poor fit] | –
34 | COc1ccc(-c2ccc(=O)n(CC(=O)Nc3ccc(OC)c(OC)c3)n2)cc1 | 1.26 µM [falling, full curve, poor fit] | –
35 | Nc1nc(Cl)nc2c1ncn2[C@@H]1O[C@H](CO)[C@@H](O)[C@H]1O | 35.5 µM [falling, single point] and 10 µM [rising, single point] | 4.47 µM [falling, single point] and 35.5 µM [falling, single point]
36 | CC1CCCCN1S(=O)(=O)c1ccc(S(=O)(=O)NCCc2ccncc2)cc1 (stereo not drawn) | 35.5 µM [rising, single point] | 35.5 µM [rising, single point]
37 | Cn1c(=O)c2c(SCC(=O)N3CCc4ccccc43)nc(-c3ccc(Cl)cc3)nc2n(C)c1=O | – | 0.0251 µM [rising, full curve, poor fit]
38 | O=c1[nH]c2ccccc2n1CCCN1CCN(C(c2ccccc2)c2ccccc2)CC1 | 22.4 µM [rising, partial curve] | 20 µM [rising, partial curve, poor fit]
39 | O=S(=O)(c1ccccc1)c1ccccc1/C=N\O | – | 35.5 µM [rising, single point]
40 | CC(C)=C1SC(N2CCN(c3cccc(Cl)c3)CC2)=NC1=O | 11.2 µM [rising, single point] | –
41 | CC(O)c1c(OCc2ccccc2)ncnc1OCc1ccccc1 (stereo not drawn) | 6.31 µM [rising, full curve, poor fit] | –
42 | COc1cccc(-c2cncnc2NCc2cnc(C)cn2)c1 | 8.91 µM [falling, partial curve] | 7.94 µM [falling, partial curve]
43 | N#Cc1c(NC(=S)NC(=O)C2CCCC2)sc2c1CCCCC2 | 12.6 µM [rising, partial curve] | –
44 | CCCCn1ccnc1C(=O)c1cc(S(=O)(=O)N2CCOCC2)ccc1C | 10 µM [rising, partial curve] | 11.2 µM [rising, partial curve, poor fit]
45 | Cc1ccc2c(c1)cc(CN(Cc1ccco1)C(=O)N1CCOCC1)c1nnnn12 | – | 0.02 µM [falling, full curve, poor fit]
46 | CCC(=O)Nc1ccc(C(=O)NNC(=O)COc2cc(C)ccc2C)cc1 | 12.6 µM [rising, single point] | –
47 | CN(C)c1ccc(NC(=O)C2CCCN(S(=O)(=O)c3ccccc3)C2)cc1 (stereo not drawn) | 0.631 µM [falling, full curve, poor fit] | 0.398 µM [falling, full curve, poor fit]
48 | COc1ccc(CCNC(=S)N2CCC(Cc3ccccc3)CC2)cc1OC | 7.94 µM [rising, partial curve] | –
49 | CCOC(=O)c1ccc(NS(=O)(=O)c2ccc3c(c2)oc(=O)n3C)cc1 | 25.1 µM [rising, partial curve] | 20 µM [rising, partial curve]
50 | O=C(O)Cc1cn(Cc2cccc(Cl)c2)c2ccccc12 | 14.1 µM [falling, single point] | –
51 | COc1ccccc1NC(=S)N/N=C/c1ccc(O)cc1 | 14.1 µM [falling, single point] | 25.1 µM [falling, single point]
52 | O=C(NCCc1ccccc1)C(=Cc1ccc(C(=O)O)cc1)C(=O)NCCc1ccccc1 | 35.5 µM [rising, single point] | –
53 | Cc1ccc(-c2cc(C(F)F)nc(NCc3cccnc3)n2)cc1 | 17.8 µM [rising, single point] | 10 µM [rising, single point]

Some of the entries so far, comma-delimited.
Row,Compound,AC50 [1],AC50 [2]
51,COc1ccccc1NC(=S)N/N=C/c1ccc(O)cc1,"14.1 µM [falling, single point]","25.1 µM [falling, single point]"
52,O=C(NCCc1ccccc1)C(=Cc1ccc(C(=O)O)cc1)C(=O)NCCc1ccccc1,"35.5 µM [rising, single point]",–
